No constants are given. Whether binding was seen depends on the method and setting. Some entries that bind do so weakly or less than the wild type. For some of these results: Sequences can lack the tags named with a protein.
T1: Recombinant human NRP‐1 (human, UniProt O14786 22-856)
T1 construct: Neuropilin-1, human, recombinant soluble protein; see the vendor's datasheet (as far as I recall an extracellular fragment with a C-terminal His tag); also called Neuropilin‐1; soluble NRP‐1; source: bought: R&D Systems (3870‐N1)
T1 sequence (looked up): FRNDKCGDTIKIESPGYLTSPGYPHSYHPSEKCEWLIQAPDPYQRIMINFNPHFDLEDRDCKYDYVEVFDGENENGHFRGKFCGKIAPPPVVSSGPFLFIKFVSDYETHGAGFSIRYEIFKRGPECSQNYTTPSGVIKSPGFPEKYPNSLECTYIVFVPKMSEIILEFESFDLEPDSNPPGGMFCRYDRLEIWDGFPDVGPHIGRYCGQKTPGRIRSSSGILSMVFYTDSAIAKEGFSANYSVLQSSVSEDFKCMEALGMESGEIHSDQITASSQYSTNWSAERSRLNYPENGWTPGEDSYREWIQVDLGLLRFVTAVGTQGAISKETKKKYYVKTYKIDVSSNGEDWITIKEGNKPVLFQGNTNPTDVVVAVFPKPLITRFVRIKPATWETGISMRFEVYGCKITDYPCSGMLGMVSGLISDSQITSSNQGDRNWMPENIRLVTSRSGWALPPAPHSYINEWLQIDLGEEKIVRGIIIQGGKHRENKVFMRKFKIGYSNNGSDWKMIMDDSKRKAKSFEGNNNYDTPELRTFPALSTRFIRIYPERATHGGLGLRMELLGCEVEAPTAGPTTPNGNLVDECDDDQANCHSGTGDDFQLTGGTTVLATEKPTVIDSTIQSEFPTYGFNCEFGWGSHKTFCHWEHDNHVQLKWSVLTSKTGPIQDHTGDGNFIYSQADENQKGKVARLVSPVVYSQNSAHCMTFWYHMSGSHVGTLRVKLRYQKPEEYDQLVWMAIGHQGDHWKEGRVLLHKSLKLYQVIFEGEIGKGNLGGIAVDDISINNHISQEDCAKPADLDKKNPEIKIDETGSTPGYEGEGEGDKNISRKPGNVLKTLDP

T2: Recombinant human NRP‐2/Fc (human) (UniProt O60462)
T2 sequence: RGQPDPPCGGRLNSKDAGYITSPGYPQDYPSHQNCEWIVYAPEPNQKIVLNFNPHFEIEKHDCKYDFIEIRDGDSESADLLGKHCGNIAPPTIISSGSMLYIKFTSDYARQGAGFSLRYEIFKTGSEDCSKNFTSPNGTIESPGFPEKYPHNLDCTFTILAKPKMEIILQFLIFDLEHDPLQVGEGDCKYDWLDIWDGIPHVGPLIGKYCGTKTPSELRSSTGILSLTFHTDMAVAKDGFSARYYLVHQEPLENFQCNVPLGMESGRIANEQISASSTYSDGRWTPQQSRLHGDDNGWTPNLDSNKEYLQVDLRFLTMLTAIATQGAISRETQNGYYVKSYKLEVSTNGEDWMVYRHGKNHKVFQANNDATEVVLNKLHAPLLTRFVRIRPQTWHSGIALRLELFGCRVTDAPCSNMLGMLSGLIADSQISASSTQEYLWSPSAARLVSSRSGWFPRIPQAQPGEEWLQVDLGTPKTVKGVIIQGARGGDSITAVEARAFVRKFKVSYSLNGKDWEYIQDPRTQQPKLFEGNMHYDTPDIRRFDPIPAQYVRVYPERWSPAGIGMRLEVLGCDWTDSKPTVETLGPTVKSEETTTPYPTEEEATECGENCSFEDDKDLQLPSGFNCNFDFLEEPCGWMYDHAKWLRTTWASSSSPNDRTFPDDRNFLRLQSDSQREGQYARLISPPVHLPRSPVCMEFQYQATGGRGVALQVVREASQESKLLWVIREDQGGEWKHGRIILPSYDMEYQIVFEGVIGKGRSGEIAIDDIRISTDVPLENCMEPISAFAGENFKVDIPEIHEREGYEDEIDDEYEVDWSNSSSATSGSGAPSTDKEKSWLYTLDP


Assays:
Recombinant human NRP‐1 [1] = target: T1, Recombinant human NRP‐1; experiment: solid-phase binding assay; plates coated overnight at 4 °C with 2 µg/mL protein in 25 mM Tris/HCl, 150 mM NaCl, 1 mM MgCl2; blocked with 1% BSA/PBS; biotinylated peptide 500 µg/mL, 1 h, room temperature; detected with streptavidin-alkaline phosphatase, A405; both purified
[2] = target: T2, Recombinant human NRP‐2/Fc (human); experiment: as above
[3] = target: Recombinant human VEGFR‐1/Fc (human) (UniProt P17948); experiment: as above
Recombinant human NRP‐1 [4] = target: T1, Recombinant human NRP‐1; experiment: SPR; competition: NRP-1 immobilised by amine coupling; protein analyte at a fixed concentration (VEGFR-1/Fc 5 nM; α5β1 integrin 200 nM; semaphorin 3A 200 nM) injected together with peptide at different concentrations; HEPES-buffered saline; both purified

Binder	binding (Recombinant human NRP‐1 [1])	binding [2]	binding [3]	binding (Recombinant human NRP‐1 [4])
NITVTLKKFPL (biotin) [biotinylated Flt_(2‐11) peptide]	binds	binds	no binding (tested: 500 µg·mL^−1)	–
Recombinant human VEGFR‐1/Fc (Fc fusion, UniProt P17948 27-758, looked up, VEGFR-1 (Flt-1), human, recombinant Fc chimera; also called sVEGFR‐1; sVEGFR‐1/Fc; source: bought: R&D Systems (321‐FL‐050)) SKLKDPELSLKGTQHIMQAGQTLHLQCRGEAAHKWSLPEMVSKESERLSITKSACGRNGKQFCSTLTLNTAQANHTGFYSCKYLAVPTSKKKETESAIYIFISDTGRPFVEMYSEIPEIIHMTEGRELVIPCRVTSPNITVTLKKFPLDTLIPDGKRIIWDSRKGFIISNATYKEIGLLTCEATVNGHLYKTNYLTHRQTNTIIDVQISTPRPVKLLRGHTLVLNCTATTPLNTRVQMTWSYPDEKNKRASVRRRIDQSNSHANIFYSVLTIDKMQNKDKGLYTCRVRSGPSFKSVNTSVHIYDKAFITVKHRKQQVLETVAGKRSYRLSMKVKAFPSPEVVWLKDGLPATEKSARYLTRGYSLIIKDVTEEDAGNYTILLSIKQSNVFKNLTATLIVNVKPQIYEKAVSSFPDPALYPLGSRQILTCTAYGIPQPTIKWFWHPCNHNHSEARCDFCSNNEESFILDADSNMGNRIESITQRMAIIEGKNKMASTLVVADSRISGIYICIASNKVGTVGRNISFYITDVPNGFHVNLEKMPTEGEDLKLSCTVNKFLYRDVTWILLRTVNNRTMHYSISKQKMAITKEHSITLNLTIMNVSLQDSGTYACRARNVYTGEEILQKKEITIRDQEAPYLLRNLSDHTVAISSSTTLDCHANGVPEPQITWFKNNHKIQQEPGIILGPGSSTLFIERVTEEDEGVYHCKATNQKGSVESSAYLTVQGTSDKSNLE	–	–	–	binds

Reference: publication PMC9290910, “Neuropilin‐1 is required for endothelial cell adhesion to soluble vascular endothelial growth factor receptor 1” (The Febs Journal, 2021)
